Results are given in words; binding and its absence hold for the method and conditions named. In cells and extracts the contact can be indirect. These calls come from enrichment with a bait or labelling near it, and not all partners need be listed.
Target: TgWIP^WT, wild-type Toxoplasma WAVE complex-interacting protein with a C-terminal HA tag (Toxoplasma gondii)
Test: affinity purification with mass spectrometry; HA-tagged TgWIP variants pulled down by the HA tag from lysates of DC2.4 cells infected 4 h at MOI 7; host partners by mass spectrometry; values are negative fold changes in peptide counts of the mutant immunoprecipitations relative to TgWIP^WT

B1: Arhgef6, endogenous in murine DC2.4 cells (protein, UniProt Q8K4I3 1-771)
chain: MNPEERLVTWLISLGVLESPKKTVCDPEEFLKSSLKNGVVLCKLINRLLPGSVEKYCLEPQTEADCIDNINDFLKGCATLQVEVFEPDDLYSGANFSKVLNTLLAVNKATEDQLSERPCGRSSSLSAATSSQTNPQVAVPSTAPEQHSEEKAEMTENGSHQLIVKARFNFKQTNEDELSVCKGDIIYVTRVEEGGWWEGTLNGRTGWFPSNYVREIKPSERPLSPKAIKGFDTAPLTKNYYTVVLQNILDTEKEYAKELQSLLVTYLRPLQSNNNLSTVEFTCLLGNFEEVCTFQQTLCQALEECSKFPENQHKVGGCLLNLMPHFKSMYLAYCANHPSAVNVLTQHSDDLERFMENQGASSPGILILTTSLSKPFMRLEKYVTLLQELERHMEDTHPDHQDILKAIIAFKTLMGQCQDLRKRKQLELQILSEPIQAWEGDDIKTLGNVIFMSQVVMQHGACEEKEERYFLLFSSVLIMLSASPRMSGFMYQGKIPIAGMVVNRLDEIEGSDCMFEITGSTVERIVVHCNNNQDFQEWMEQLNRLTKGPTSCGSLSKTSSSSCSTHSSFSSTGQPRGPLEPPQIIKPWSLSCLRPAPPLRPSAALGYKERMSYILKESSKSPKTMKKFLHKRKTERKASEEEYVIRKSTAALEEDAQILKVIEAYCTSASFQQGTRKDSVPQVLLPEEEKLIIEETRSNGQTIIEEKSLVDTVYALKDEVKELKQENKKMKQCLEEELKSRKDLEKLVRKLLKQTDECIRSESSSKTSILQ
binding: binds

Reference: PMC12691643
